Assay results published in doi:10.1101/2025.07.04.663186.
No constants are given. Whether binding was seen depends on the method and setting. Binding seen in cells or lysates may run through a third protein. Sequences can lack the tags named with a protein.

Amino acid sequences for entries named in this document (tags omitted). A change or cut given only in a name is not applied to a line headed by its entry. Residues count along the entry.
UniProt O00160: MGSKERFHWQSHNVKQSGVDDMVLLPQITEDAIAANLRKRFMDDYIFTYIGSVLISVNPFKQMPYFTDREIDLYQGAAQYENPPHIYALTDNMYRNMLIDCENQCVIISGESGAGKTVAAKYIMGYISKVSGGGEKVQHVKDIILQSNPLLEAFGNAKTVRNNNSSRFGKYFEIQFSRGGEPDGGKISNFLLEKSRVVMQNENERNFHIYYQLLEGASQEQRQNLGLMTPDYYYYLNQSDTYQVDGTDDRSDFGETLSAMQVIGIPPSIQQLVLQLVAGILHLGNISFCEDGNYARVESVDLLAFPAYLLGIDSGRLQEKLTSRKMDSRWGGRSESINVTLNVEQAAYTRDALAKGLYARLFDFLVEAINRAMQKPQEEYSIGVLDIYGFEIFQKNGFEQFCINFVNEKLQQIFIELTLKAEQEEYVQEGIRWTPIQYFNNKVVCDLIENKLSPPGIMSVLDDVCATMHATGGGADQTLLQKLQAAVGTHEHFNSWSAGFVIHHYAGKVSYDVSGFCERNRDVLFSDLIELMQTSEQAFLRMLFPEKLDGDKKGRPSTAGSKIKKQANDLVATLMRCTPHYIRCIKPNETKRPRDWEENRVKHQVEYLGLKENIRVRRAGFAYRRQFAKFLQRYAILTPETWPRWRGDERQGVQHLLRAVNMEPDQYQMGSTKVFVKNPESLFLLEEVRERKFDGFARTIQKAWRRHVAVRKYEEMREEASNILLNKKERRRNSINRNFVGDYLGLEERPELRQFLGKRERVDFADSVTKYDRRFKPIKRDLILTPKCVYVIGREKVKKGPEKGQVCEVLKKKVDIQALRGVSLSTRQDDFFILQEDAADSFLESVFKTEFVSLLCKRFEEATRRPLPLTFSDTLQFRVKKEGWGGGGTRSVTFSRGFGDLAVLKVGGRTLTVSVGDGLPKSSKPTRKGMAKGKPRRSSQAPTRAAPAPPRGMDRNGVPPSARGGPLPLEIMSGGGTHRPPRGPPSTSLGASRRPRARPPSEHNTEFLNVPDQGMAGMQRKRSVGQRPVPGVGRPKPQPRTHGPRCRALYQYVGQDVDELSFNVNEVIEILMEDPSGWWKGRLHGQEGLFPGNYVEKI
UniProt Q9ULH1, residues 589-1129: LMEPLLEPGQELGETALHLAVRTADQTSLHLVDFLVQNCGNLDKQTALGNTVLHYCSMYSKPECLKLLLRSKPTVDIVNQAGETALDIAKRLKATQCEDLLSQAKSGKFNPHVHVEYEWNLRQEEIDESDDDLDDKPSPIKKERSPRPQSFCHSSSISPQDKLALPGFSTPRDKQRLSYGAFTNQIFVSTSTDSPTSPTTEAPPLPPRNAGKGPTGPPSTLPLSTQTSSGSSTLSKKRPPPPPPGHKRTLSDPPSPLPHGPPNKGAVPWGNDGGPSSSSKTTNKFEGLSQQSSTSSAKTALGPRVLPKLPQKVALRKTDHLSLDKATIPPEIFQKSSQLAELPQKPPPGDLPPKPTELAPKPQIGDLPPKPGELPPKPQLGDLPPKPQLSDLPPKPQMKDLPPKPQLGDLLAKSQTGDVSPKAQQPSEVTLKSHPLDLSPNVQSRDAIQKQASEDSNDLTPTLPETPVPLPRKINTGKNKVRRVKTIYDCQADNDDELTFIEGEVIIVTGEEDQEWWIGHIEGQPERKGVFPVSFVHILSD
UniProt Q96B97: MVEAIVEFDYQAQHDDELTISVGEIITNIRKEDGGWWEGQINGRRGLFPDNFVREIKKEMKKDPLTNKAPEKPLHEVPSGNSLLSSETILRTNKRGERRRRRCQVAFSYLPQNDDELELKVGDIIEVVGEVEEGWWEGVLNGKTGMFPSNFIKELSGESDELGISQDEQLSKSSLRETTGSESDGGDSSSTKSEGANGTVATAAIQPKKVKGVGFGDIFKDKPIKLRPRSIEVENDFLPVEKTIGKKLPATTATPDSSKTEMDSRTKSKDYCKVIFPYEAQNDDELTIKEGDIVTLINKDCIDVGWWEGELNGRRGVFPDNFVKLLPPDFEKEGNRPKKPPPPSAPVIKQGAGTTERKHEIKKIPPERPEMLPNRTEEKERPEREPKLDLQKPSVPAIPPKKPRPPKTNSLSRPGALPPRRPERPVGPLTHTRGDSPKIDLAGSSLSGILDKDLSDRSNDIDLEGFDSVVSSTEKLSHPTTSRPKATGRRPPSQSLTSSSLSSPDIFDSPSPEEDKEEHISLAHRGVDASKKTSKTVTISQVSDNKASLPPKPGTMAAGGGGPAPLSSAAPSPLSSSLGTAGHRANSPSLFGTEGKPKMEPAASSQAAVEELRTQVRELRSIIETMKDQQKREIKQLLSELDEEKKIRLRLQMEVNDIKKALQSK

Biological target: GFP-MYO1FΔSH3 (human) (UniProt O00160)
Assay: co-IP

binding | Molecule
no binding | myc-ASAP-3' (aa 589 - aa1129) (from UniProt Q9ULH1 589-1129) (domain or fragment)
no binding | myc-SH3KBP1 (from UniProt Q96B97 1-665)
no binding | myc-SH3BP2 (wild-type) (protein, UniProt P78314 1-561) MAAEEMHWPVPMKAIGAQNLLTMPGGVAKAGYLHKKGGTQLQLLKWPLRFVIIHKRCVYYFKSSTSASPQGAFSLSGYNRVMRAAEETTSNNVFPFKIIHISKKHRTWFFSASSEEERKSWMALLRREIGHFHEKKDLPLDTSDSSSDTDSFYGAVERPVDISLSPYPTDNEDYEHDDEDDSYLEPDSPEPGRLEDALMHPPAYPPPPVPTPRKPAFSDMPRAHSFTSKGPGPLLPPPPPKHGLPDVGLAAEDSKRDPLCPRRAEPCPRVPATPRRMSDPPLSTMPTAPGLRKPPCFRESASPSPEPWTPGHGACSTSSAAIMATATSRNCDKLKSFHLSPRGPPTSEPPPVPANKPKFLKIAEEDPPREAAMPGLFVPPVAPRPPALKLPVPEAMARPAVLPRPEKPQLPHLQRSPPDGQSFRSFSFEKPRQPSQADTGGDDSDEDYEKVPLPNSVFVNTTESCEVERLFKATSPRGEPQDGLYCIRNSSTKSGKVLVVWDETSNKVRNYRIFEKDSKFYLEGEVLFVSVGSMVEHYHTHVLPSHQSLLLRHPYGYTGPR
